Laboratory results published in the supplement of paper PMC6411743.
± gives the standard deviation of the averaged measurements. The entries are a selection whose mix differs from that of the whole data set.

Chains of the proteins cited; added tags and fusions are not shown. Lines headed by an entry give the natural chain unless they say otherwise; changes in a name come on top.
UniProt Q96GK7: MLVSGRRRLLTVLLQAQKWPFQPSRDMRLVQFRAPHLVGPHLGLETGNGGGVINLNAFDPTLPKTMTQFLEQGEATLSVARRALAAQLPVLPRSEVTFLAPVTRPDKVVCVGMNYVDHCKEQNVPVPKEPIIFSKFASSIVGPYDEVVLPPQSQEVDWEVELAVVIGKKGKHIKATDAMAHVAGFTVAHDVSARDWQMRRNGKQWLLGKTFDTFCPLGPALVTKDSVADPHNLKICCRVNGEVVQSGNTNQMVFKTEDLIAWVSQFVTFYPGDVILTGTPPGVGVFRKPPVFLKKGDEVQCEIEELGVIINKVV
UniProt Q96I99: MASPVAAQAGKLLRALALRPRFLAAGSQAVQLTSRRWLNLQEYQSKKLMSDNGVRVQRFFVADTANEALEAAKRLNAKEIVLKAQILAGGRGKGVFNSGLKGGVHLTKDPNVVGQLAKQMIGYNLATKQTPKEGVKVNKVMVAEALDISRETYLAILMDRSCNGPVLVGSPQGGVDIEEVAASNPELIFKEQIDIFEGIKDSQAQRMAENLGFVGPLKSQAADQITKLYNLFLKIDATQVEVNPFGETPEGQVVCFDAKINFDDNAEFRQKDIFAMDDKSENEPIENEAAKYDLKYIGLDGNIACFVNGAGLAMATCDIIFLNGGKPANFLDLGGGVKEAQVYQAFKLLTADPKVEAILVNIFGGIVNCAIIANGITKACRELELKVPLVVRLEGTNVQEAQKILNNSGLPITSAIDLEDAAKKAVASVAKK
UniProt Q96KP4: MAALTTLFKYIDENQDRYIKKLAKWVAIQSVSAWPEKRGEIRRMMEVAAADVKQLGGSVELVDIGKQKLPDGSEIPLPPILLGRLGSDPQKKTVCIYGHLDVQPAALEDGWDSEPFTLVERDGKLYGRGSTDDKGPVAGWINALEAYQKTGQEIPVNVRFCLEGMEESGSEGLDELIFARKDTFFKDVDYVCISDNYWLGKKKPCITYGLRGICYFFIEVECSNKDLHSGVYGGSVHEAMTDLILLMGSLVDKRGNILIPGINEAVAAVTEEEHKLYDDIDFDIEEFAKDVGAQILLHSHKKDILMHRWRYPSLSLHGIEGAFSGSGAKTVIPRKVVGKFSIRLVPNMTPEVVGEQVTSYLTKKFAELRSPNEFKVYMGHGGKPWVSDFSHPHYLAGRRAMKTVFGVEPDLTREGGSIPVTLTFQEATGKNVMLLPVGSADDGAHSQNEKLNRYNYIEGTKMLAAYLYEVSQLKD
UniProt Q96HS1, whole entry: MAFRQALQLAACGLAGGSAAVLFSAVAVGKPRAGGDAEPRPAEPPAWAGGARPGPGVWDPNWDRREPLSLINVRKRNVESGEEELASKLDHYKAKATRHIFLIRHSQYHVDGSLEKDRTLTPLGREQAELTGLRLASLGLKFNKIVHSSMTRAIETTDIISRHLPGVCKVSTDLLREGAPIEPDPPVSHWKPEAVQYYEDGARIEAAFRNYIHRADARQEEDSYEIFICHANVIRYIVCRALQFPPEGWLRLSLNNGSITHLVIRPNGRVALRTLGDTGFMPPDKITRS
UniProt Q969N2: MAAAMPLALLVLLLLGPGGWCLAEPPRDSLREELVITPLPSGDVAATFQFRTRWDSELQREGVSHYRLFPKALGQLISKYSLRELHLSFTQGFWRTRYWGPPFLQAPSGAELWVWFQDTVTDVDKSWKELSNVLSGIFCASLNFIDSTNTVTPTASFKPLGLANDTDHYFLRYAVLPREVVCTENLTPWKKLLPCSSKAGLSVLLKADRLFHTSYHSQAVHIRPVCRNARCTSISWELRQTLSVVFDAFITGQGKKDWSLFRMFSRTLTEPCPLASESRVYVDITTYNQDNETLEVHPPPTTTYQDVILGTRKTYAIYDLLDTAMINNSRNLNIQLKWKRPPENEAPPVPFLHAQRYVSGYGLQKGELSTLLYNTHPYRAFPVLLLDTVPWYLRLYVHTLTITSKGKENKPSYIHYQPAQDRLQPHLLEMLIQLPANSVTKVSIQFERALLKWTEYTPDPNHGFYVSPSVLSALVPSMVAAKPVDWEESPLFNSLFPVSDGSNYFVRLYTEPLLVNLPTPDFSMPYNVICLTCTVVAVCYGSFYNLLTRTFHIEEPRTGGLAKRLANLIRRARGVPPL
UniProt Q96EA4: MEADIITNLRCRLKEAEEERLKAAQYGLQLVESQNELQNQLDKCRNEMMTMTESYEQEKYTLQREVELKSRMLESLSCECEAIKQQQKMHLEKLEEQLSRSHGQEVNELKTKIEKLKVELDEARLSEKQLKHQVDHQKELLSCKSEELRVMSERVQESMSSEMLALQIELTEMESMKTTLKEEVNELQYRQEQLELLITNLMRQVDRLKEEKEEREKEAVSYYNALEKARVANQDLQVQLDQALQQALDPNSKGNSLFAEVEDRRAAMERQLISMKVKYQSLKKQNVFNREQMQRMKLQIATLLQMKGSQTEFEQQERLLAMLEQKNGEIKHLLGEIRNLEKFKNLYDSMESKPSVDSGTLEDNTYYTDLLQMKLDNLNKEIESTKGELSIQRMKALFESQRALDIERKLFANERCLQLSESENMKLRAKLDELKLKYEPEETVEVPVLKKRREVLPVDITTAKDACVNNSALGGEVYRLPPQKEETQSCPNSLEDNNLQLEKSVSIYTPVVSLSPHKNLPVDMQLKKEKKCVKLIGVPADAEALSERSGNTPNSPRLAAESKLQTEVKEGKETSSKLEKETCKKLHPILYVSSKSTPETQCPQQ
UniProt Q96CS3: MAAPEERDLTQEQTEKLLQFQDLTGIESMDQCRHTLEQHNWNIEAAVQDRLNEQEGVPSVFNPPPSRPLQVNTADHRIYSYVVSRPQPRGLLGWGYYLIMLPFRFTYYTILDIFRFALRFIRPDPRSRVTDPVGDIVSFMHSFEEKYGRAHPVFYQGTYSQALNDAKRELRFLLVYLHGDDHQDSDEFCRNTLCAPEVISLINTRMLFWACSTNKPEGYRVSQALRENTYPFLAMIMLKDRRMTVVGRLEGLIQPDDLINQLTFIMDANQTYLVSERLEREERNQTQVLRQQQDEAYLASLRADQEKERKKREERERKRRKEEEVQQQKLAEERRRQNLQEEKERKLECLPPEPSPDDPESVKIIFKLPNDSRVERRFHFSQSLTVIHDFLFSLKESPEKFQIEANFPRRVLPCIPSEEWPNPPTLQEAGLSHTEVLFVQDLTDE
UniProt Q96C19: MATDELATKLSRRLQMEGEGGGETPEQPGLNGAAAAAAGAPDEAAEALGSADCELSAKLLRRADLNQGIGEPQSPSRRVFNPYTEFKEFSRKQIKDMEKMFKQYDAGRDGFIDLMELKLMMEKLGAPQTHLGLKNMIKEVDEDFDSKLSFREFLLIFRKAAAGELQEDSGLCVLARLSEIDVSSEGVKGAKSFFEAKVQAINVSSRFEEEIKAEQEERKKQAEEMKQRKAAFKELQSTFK
UniProt Q96IJ6: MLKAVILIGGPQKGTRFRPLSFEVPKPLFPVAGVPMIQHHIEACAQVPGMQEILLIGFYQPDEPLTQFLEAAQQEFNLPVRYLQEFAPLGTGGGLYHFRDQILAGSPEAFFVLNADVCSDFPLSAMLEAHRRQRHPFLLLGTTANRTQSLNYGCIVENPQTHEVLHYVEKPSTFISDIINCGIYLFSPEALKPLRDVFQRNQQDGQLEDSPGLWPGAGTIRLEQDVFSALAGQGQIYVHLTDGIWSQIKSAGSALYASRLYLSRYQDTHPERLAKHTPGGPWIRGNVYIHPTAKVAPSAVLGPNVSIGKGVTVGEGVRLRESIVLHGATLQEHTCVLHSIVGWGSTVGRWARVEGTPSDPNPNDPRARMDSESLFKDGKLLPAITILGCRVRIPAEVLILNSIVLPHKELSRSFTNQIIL
UniProt Q96HA7: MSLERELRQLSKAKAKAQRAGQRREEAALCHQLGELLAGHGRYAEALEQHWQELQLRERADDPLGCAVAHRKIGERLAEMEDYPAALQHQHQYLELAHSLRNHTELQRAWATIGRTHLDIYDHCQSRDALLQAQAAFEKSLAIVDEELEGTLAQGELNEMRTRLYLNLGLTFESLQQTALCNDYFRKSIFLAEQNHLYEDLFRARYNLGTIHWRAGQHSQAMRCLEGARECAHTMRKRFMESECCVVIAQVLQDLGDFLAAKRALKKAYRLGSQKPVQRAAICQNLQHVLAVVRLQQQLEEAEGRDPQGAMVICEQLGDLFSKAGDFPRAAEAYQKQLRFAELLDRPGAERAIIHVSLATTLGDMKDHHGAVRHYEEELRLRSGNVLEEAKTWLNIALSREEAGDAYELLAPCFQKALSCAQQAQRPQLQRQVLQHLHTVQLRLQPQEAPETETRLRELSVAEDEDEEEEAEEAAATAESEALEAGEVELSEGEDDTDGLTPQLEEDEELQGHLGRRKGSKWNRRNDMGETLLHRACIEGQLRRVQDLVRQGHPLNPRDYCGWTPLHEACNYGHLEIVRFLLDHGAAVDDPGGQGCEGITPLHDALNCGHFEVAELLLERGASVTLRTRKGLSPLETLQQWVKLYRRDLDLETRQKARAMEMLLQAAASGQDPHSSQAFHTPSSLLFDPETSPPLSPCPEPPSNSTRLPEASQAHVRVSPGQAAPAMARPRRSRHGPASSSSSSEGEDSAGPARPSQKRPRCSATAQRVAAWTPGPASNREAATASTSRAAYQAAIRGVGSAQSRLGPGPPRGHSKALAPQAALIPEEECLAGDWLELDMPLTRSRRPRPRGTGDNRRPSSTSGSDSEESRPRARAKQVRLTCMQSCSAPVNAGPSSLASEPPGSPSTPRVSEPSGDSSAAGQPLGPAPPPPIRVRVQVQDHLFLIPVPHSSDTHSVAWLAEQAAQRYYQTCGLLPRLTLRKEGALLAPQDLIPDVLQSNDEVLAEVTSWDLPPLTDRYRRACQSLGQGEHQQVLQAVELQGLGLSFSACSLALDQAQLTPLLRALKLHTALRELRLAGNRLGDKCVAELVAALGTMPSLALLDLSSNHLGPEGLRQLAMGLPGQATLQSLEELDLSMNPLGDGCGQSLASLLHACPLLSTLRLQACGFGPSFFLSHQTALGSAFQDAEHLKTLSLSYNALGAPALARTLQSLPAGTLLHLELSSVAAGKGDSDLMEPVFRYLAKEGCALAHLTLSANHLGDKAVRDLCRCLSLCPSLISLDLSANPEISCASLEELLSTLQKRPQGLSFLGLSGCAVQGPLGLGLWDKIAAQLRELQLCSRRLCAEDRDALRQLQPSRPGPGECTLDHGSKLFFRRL
UniProt Q93050, whole entry: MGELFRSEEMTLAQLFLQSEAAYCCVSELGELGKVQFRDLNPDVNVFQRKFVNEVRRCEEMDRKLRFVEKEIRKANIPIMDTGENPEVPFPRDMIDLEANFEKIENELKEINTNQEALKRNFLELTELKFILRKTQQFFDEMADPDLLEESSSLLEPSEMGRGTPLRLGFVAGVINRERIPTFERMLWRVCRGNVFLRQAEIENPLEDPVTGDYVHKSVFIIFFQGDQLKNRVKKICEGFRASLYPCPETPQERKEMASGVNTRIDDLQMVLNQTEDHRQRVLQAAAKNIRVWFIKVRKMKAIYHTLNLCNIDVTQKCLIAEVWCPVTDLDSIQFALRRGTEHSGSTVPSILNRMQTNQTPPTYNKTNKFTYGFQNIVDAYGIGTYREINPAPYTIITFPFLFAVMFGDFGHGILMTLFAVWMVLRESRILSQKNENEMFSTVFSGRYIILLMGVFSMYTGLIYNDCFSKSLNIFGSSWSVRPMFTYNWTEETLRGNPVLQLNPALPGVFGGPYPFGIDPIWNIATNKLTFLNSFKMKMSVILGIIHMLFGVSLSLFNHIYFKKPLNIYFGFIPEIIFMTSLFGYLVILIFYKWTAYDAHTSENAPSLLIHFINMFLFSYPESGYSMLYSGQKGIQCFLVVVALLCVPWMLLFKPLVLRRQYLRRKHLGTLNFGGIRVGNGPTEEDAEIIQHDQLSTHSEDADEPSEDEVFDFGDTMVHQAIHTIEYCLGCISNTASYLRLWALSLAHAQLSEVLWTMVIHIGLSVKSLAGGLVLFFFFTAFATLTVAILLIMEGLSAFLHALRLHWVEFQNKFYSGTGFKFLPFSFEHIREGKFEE
UniProt Q96JP5: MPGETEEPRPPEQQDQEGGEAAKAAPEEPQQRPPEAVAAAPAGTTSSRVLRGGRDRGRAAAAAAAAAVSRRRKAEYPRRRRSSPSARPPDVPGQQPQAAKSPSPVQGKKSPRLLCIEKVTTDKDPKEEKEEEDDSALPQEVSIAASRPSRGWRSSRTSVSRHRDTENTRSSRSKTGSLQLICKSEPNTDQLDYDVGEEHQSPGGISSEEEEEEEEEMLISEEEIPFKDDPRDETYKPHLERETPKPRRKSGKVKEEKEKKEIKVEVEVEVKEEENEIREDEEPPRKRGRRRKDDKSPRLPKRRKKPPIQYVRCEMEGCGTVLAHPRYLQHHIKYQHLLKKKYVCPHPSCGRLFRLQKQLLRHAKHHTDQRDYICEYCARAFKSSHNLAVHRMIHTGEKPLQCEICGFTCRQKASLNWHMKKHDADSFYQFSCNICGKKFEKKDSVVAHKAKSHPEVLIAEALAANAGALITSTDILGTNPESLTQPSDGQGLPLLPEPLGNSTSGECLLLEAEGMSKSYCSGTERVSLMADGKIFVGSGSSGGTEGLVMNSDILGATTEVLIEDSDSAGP

Compound: Nc1ncnc2c1ncn2[C@@H]1O[C@H](COP(=O)(O)OP(=O)(O)NP(=O)(O)O)[C@@H](O)[C@H]1O [adenylyl imidodiphosphate]
Assay: NP40-soluble protein abundance relative to vehicle (solubility fold change) (ratio); higher = more soluble protein in presence of AMP-PNP
How it was run: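 Data come from three independent experiments in which Dounce-homogenised Jurkat crude lysate was treated at eight concentrations from 0.1 to 10 mM. Treatment ran 10 min at room temperature and then 3 min at 37 °C, after which 0.8% NP40 and benzonase were added for 60 min at 4 °C before ultracentrifugation. The supernatant underwent TMT labelling and LC-MS/MS, and vsn-normalised intensities were expressed as fold change against the detergent-processed vehicle in each replicate.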

Target | NP40-soluble protein abundance (concentration: 1mM) | NP40-soluble protein abundance (concentration: 2mM) | NP40-soluble protein abundance (concentration: 4mM) | NP40-soluble protein abundance (concentration: 6mM) | NP40-soluble protein abundance (concentration: 8mM) | NP40-soluble protein abundance (concentration: 10mM)
FAHD2A (UniProt Q96GK7) | 1.022 ± 0.009 | 0.954 ± 0.086 | 1 ± 0.019 | 0.963 ± 0.018 | 0.971 ± 0.016 | 0.982 ± 0.031
SUCLG2 (UniProt Q96I99) | 1.03 ± 0.014 | 1 ± 0.019 | 1.01 ± 0.03 | 1.02 ± 0.043 | 1.01 ± 0.029 | 1.02 ± 0.04
UniProt Q96KP4 and related entries | 1.02 ± 0.03 | 1.03 ± 0.029 | 1 ± 0.045 | 1.06 ± 0.05 | 0.99 ± 0.057 | 1.027 ± 0.0078
UniProt Q96AE4 and related entries | 1.014 ± 0.0086 | 1.06 ± 0.058 | 0.996 ± 0.034 | 0.973 ± 0.017 | 0.944 ± 0.011 | 0.936 ± 0.035
UniProt Q96IV0 and related entries | 0.956 ± 0.026 | 0.908 ± 0.027 | 0.932 ± 0.038 | 0.9012 ± 0.0066 | 0.913 ± 0.022 | 0.886 ± 0.024
UniProt Q96HS1 and related entries | 0.987 ± 0.045 | 0.993 ± 0.076 | 1.06 ± 0.1 | 1.15 ± 0.096 | 1.23 ± 0.14 | 1.27 ± 0.19
UniProt Q96CB8 and related entries | 1.05 ± 0.063 | 1.11 ± 0.053 | 1.17 ± 0.1 | 1.19 ± 0.15 | 1.2 ± 0.12 | 1.24 ± 0.15
UniProt Q96J02 and related entries | 1.01 ± 0.018 | 0.966 ± 0.067 | 1.01 ± 0.042 | 0.993 ± 0.049 | 1.03 ± 0.03 | 0.978 ± 0.025
UniProt Q96JC1 and related entries | 0.985 ± 0.018 | 0.932 ± 0.049 | 1.01 ± 0.013 | 0.974 ± 0.056 | 1 ± 0.017 | 0.975 ± 0.02
DPH3 (UniProt Q96FX2) | 1.01 ± 0.038 | 1.01 ± 0.014 | 1 ± 0.033 | 1.03 ± 0.031 | 1.03 ± 0.027 | 1.02 ± 0.014
UniProt Q969N2 and related entries | 0.935 ± 0.077 | 0.917 ± 0.032 | 0.956 ± 0.032 | 1.01 ± 0.06 | 0.986 ± 0.071 | 1.02 ± 0.049
UniProt Q96EH3 | 0.948 ± 0.028 | 0.937 ± 0.063 | 0.932 ± 0.027 | 0.971 ± 0.022 | 0.969 ± 0.011 | 0.95 ± 0.037
UniProt Q96L73 and related entries | 1.03 ± 0.022 | 1.02 ± 0.1 | 1.02 ± 0.035 | 1.04 ± 0.031 | 1.02 ± 0.016 | 1.064 ± 0.0032
UniProt Q96N46 and related entries | 1.02 ± 0.019 | 1.04 ± 0.045 | 1.04 ± 0.022 | 1.0622 ± 0.00014 | 1.05 ± 0.017 | 1.07 ± 0.014
UniProt Q96EA4 | 0.9953 ± 0.0059 | 1.05 ± 0.019 | 1 ± 0.043 | 0.974 ± 0.014 | 0.978 ± 0.012 | 0.956 ± 0.034
MRPS24 (UniProt Q96EL2) | 0.986 ± 0.081 | 0.927 ± 0.055 | 0.99 ± 0.055 | 0.979 ± 0.024 | 0.989 ± 0.053 | 0.965 ± 0.069
UniProt Q96DI7 and related entries | 0.98 ± 0.031 | 1.01 ± 0.054 | 1.04 ± 0.07 | 1.1 ± 0.023 | 1.12 ± 0.035 | 1.19 ± 0.093

Single entries from the entries so far.
NP40-soluble protein abundance (concentration: 10mM), UniProt Q96DI7 and related entries is entered as 1.19 ± 0.093
NP40-soluble protein abundance (concentration: 10mM), UniProt Q96CB8 and related entries is entered as 1.24 ± 0.15

The results go on:

Target | NP40-soluble protein abundance (concentration: 1mM) | NP40-soluble protein abundance (concentration: 2mM) | NP40-soluble protein abundance (concentration: 4mM) | NP40-soluble protein abundance (concentration: 6mM) | NP40-soluble protein abundance (concentration: 8mM) | NP40-soluble protein abundance (concentration: 10mM)
GCC1 (UniProt Q96CN9) | 1.022 ± 0.0097 | 1.06 ± 0.055 | 1.051 ± 0.0087 | 0.978 ± 0.028 | 0.962 ± 0.019 | 1.01 ± 0.012
FAF2 (UniProt Q96CS3) | 0.979 ± 0.022 | 0.979 ± 0.026 | 1.01 ± 0.015 | 0.988 ± 0.031 | 0.9613 ± 0.0095 | 0.974 ± 0.017
UniProt Q96JK2 and related entries | 0.991 ± 0.035 | 0.984 ± 0.049 | 0.986 ± 0.053 | 0.992 ± 0.037 | 0.983 ± 0.035 | 0.989 ± 0.043
ITFG2 (UniProt Q969R8) | 0.97 ± 0.03 | 0.981 ± 0.032 | 0.967 ± 0.0066 | 0.981 ± 0.043 | 0.979 ± 0.051 | 0.976 ± 0.024
VCPIP1 (UniProt Q96JH7) | 1.02 ± 0.022 | 0.99 ± 0.05 | 0.993 ± 0.024 | 0.967 ± 0.038 | 0.946 ± 0.024 | 0.948 ± 0.043
LENG1 (UniProt Q96BZ8) | 1.05 ± 0.018 | 1.12 ± 0.052 | 1.12 ± 0.053 | 1.11 ± 0.044 | 1.11 ± 0.048 | 1.1 ± 0.071
EFHD2 (UniProt Q96C19) | 0.991 ± 0.044 | 1.1 ± 0.2 | 0.989 ± 0.071 | 0.974 ± 0.03 | 0.939 ± 0.013 | 0.938 ± 0.066
UniProt Q969E2 and related entries | 1.06 ± 0.019 | 1 ± 0.018 | 1.06 ± 0.015 | 1.02 ± 0.022 | 0.9629 ± 0.0036 | 0.973 ± 0.027
UniProt Q96IJ6 and related entries | 0.9729 ± 0.0088 | 0.978 ± 0.036 | 0.991 ± 0.014 | 1 ± 0.012 | 0.996 ± 0.03 | 0.993 ± 0.033
ZNF512B (UniProt Q96KM6) | 1.01 ± 0.017 | 1.09 ± 0.06 | 1.1 ± 0.061 | 1.13 ± 0.044 | 1.16 ± 0.05 | 1.17 ± 0.064
UniProt Q96D31 and related entries | 1 ± 0.041 | 0.992 ± 0.029 | 1.01 ± 0.026 | 1.01 ± 0.02 | 1.05 ± 0.018 | 1.01 ± 0.045
UniProt Q96KB5 and related entries | 0.996 ± 0.013 | 0.945 ± 0.049 | 0.982 ± 0.022 | 0.987 ± 0.02 | 0.986 ± 0.024 | 0.981 ± 0.012
UniProt Q96HA7 and related entries | 1 ± 0.017 | 0.9846 ± 0.006 | 1.03 ± 0.024 | 1.01 ± 0.026 | 0.996 ± 0.031 | 1.01 ± 0.04
SENP8 (UniProt Q96LD8) | 1.01 ± 0.019 | 0.974 ± 0.044 | 1.01 ± 0.039 | 0.985 ± 0.04 | 0.987 ± 0.023 | 0.971 ± 0.026
UniProt Q93084-2 | 1.03 ± 0.021 | 0.99 ± 0.026 | 1.04 ± 0.033 | 1.02 ± 0.044 | 1.02 ± 0.032 | 1.01 ± 0.018
UniProt Q93050 and related entries | 0.988 ± 0.038 | 0.924 ± 0.098 | 0.958 ± 0.087 | 0.897 ± 0.079 | 0.903 ± 0.091 | 0.892 ± 0.1
UniProt Q96JP5 and related entries | 1.01 ± 0.017 | 1.05 ± 0.03 | 1.01 ± 0.021 | 1.04 ± 0.068 | 0.987 ± 0.057 | 1.01 ± 0.046

Only NP40-soluble protein abundance (concentration: 1mM) (2 entries from above):

| Target | NP40-soluble protein abundance (concentration: 1mM) |
| --- | --- |
| UniProt Q93084-2 | 1.03 ± 0.021 |
| UniProt Q93050 and related entries | 0.988 ± 0.038 |
